From article PMC3322157

Sequences of proteins named here, by UniProt entry; tags and fusion partners are left off. Residues count along the entry.
UniProt Q8BMS1, residues 37-763: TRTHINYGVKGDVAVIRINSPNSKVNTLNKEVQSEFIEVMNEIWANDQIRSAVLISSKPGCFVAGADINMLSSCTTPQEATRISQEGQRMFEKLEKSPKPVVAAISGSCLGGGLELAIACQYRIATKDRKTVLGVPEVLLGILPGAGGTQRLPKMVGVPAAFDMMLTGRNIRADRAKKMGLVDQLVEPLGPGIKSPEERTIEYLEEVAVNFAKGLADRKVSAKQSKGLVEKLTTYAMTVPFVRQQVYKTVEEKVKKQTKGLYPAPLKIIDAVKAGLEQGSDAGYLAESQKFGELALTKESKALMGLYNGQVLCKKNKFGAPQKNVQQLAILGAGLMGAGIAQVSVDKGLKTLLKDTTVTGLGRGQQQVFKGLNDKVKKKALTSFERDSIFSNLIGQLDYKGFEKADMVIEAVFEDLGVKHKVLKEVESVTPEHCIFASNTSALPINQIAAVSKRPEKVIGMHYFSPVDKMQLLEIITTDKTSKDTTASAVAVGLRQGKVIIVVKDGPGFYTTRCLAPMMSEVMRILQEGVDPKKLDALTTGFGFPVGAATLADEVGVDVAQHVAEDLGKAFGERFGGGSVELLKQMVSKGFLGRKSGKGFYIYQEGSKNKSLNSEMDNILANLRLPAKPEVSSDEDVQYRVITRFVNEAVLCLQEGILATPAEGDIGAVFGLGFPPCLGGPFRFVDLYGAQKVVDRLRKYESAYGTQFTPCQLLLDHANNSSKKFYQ

T1: Histidine-tagged SCHAD (UniProt Q16836)
T1 sequence: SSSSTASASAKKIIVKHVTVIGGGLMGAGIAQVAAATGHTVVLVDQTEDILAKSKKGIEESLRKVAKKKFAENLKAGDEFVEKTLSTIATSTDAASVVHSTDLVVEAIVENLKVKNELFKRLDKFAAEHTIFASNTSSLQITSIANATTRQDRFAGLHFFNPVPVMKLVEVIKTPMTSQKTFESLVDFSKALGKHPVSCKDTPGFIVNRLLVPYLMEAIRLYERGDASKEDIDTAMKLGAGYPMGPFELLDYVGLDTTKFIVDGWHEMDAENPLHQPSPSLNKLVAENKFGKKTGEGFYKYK


Tests used:
Histidine-tagged SCHAD [1] = molecular target: T1, Histidine-tagged SCHAD; experiment: condition: only liver and brain of SCHAD knockout mice; affinity purification with mass spectrometry; as a2, homogenates of tissues from SCHAD knockout mice only (liver, brain, skeletal muscle as named for each row); only the target purified
Histidine-tagged SCHAD [2] = molecular target: T1, Histidine-tagged SCHAD; experiment: affinity purification with mass spectrometry; His-tagged SCHAD linked to agarose beads (AminoLink Plus, cyanoborohydride); homogenates of mouse liver, muscle, heart, kidney and brain (wild type and SCHAD knockout) in 50 mM Tris-HCl, 0.1% Triton-X 100, 1 mg/mL, 4°C overnight; eluted proteins identified by LC-MS/MS, BSA beads as control; only the target purified
Histidine-tagged SCHAD [3] = molecular target: T1, Histidine-tagged SCHAD; experiment: affinity purification with mass spectrometry; as a2, homogenates of tissues from SCHAD knockout mice only (liver, brain, skeletal muscle as named for each row); only the target purified

binding (Histidine-tagged SCHAD [1]) | binding (Histidine-tagged SCHAD [2]) | Molecule | binding (Histidine-tagged SCHAD [3])
– | binds | argininosuccinate synthase (protein, UniProt P16460 1-412) MSSKGSVVLAYSGGLDTSCILVWLKEQGYDVIAYLANIGQKEDFEEARKKALKLGAKKVFIEDVSKEFVEEFIWPAVQSSALYEDRYLLGTSLARPCIARRQVEIAQREGAKYVSHGATGKGNDQVRFELTCYSLAPQIKVIAPWRMPEFYNRFKGRNDLMEYAKQHGIPIPVTPKSPWSMDENLMHISYEAGILENPKNQAPPGLYTKTQDPAKAPNSPDVLEIEFKKGVPVKVTNIKDGTTRTTSLELFMYLNEVAGKHGVGRIDIVENRFIGMKSRGIYETPAGTILYHAHLDIEAFTMDREVRKIKQGLGLKFAELVYTGFWHSPECEFVRHCIQKSQERVEGKVQVSVFKGQVYILGRESPLSLYNEELVSMNVQGDYEPIDATGFININSLRLKEYHRLQSKVTAK | –
– | binds | arginase-2 (protein, UniProt O08691 23-354) VHSVAIVGAPFSRGQKKLGVEYGPAAIREAGLLKRLSRLGCHLKDFGDLSFTNVPQDDPYNNLVVYPRSVGLANQELAEVVSRAVSGGYSCVTMGGDHSLAIGTIIGHARHRPDLCVIWVDAHADINTPLTTVSGNIHGQPLSFLIKELQDKVPQLPGFSWIKPCLSPPNIVYIGLRDVEPPEHFILKNYDIQYFSMREIDRLGIQKVMEQTFDRLIGKRQRPIHLSFDIDAFDPKLAPATGTPVVGGLTYREGVYITEEIHNTGLLSALDLVEVNPHLATSEEEAKATARLAVDVIASSFGQTREGGHIVYDHLPTPSSPHESENEECVRI | –
– | binds | ETF ubiquinone oxidoreductase (mouse) (protein, UniProt Q921G7 33-616) SSTSAVPQITTHYTVHPREKDKRWEGVNMERFAEEADVVIVGAGPAGLSAAIRLKQLAAEQGKDIRVCLVEKAAQIGAHTLSGACLDPAAFKELFPDWKEKGAPLNTPVTEDRFAILTEKHRIPVPILPGLPMNNHGNYIVRLGHLVSWMGEQAEALGVEVYPGYAAAEVLYHEDGSVKGIATNDVGIQKDGAPKTTFERGLELHAKVTVFAEGCHGHLAKQLYKKFDLRASCDAQTYGIGLKELWIIDEKKWKPGRVDHTVGWPLDRHTYGGSFLYHLNEGEPLVAVGFVVGLDYQNPYLSPFREFQRWKHHPSIQPTLEGGKRIAYGARALNEGGLQSIPKLTFPGGLLIGCSPGFMNVPKIKGTHTAMKSGSLAAESIFKQLTSENLQSKTTGLHVTEYEDNLKQSWVWKELHAVRNIRPSCHGILGVYGGMIYTGIFYWILRGMEPWTLKHKGSDSDQLKPAKDCTPIEYPKPDGQISFDLLSSVALSGTNHEHDQPAHLTLKDDSIPVNRNLSIYDGPEQRFCPAGVYEFVPLEQGDGFRLQINAQNCVHCKTCDIKDPSQNINWVVPEGGGGPAYNGM | –

Further lines, the molecule ahead of its results:

Molecule | binding (Histidine-tagged SCHAD [1]) | binding (Histidine-tagged SCHAD [2]) | binding (Histidine-tagged SCHAD [3])
trifunctional enzyme alpha (from UniProt Q8BMS1 37-763) | no binding | binds | –
hydroxymethyl-CoA synthase (protein, UniProt P54869 38-508) TIPPAPLAKTDTWPKDVGILALEVYFPAQYVDQTDLEKFNNVEAGKYTVGLGQTRMGFCSVQEDINSLCLTVVQRLMERTKLPWDAVGRLEVGTETIIDKSKAVKTVLMELFQDSGNTDIEGIDTTNACYGGTASLFNAANWMESSYWDGRYALVVCGDIAVYPSGNARPTGGAGAVAMLIGPKAPLVLEQGLRGTHMENAYDFYKPNLASEYPLVDGKLSIQCYLRALDRCYAAYRKKIQNQWKQAGNNQPFTLDDVQYMIFHTPFCKMVQKSLARLMFNDFLSSSSDKQNNLYKGLEAFRGLKLEETYTNKDVDKALLKASLDMFNQKTKASLYLSTNNGNMYTSSLYGCLASLLSHHSAQELAGSRIGAFSYGSGLAASFFSFRVSKDASPGSPLEKLVSSVSDLPKRLDSRRRMSPEEFTEIMNQREQFYHKVNFSPPGDTSNLFPGTWYLERVDEMHRRKYARCPV | – | binds | –
trifunctional enzyme beta (protein, UniProt Q99JY0 35-475) SAPAVQTKSKKTLAKPNMKNIVVVEGVRIPFLLSGTSYKDLMPHDLARAALSGLLHRTNIPKDVVDYIIFGTVIQEVKTSNVAREAALGAGFSDKTPAHTVTMACISSNQAMTTAVGLIASGQCDVVVAGGVELMSDVPIRHSRNMRKMMLDLNKAKTLGQRLSLLSKFRLNFLSPELPAVAEFSTNETMGHSADRLAAAFAVSRMEQDEYALRSHSLAKKAQDEGHLSDIVPFKVPGKDTVTKDNGIRPSSLEQMAKLKPAFIKPYGTVTAANSSFLTDGASAMLIMSEDRALAMGYKPKAYLRDFIYVSQDPKDQLLLGPTYATPKVLEKAGLTMNDIDAFEFHEAFSGQILANFKAMDSDWFAQNYMGRKTKVGSPPLEKFNIWGGSLSLGHPFGATGCRLVMAAANRLRKDGGQYALVAACAAGGQGHAMIVEAYPK | no binding | binds | –
very long chain acyl-CoA dehydrogenase (protein, UniProt P50544 42-656) AREATQAVLDKPETLSSDASTREKPARAESKSFAVGMFKGQLTIDQVFPYPSVLSEEQAQFLKELVGPVARFFEEVNDPAKNDALEKVEDDTLQGLKELGAFGLQVPSELGGLGLSNTQYARLAEIVGMHDLGVSVTLGAHQSIGFKGILLYGTKAQREKYLPRVASGQALAAFCLTEPSSGSDVASIRSSAIPSPCGKYYTLNGSKIWISNGGLADIFTVFAKTPIKDAATGAVKEKITAFVVERSFGGVTHGLPEKKMGIKASNTSEVYFDGVKVPSENVLGEVGDGFKVAVNILNNGRFGMAATLAGTMKSLIAKAVDHATNRTQFGDKIHNFGVIQEKLARMAILQYVTESMAYMLSANMDQGFKDFQIEAAISKIFCSEAAWKVADECIQIMGGMGFMKEPGVERVLRDIRIFRIFEGANDILRLFVALQGCMDKGKELTGLGNALKNPFGNVGLLMGEAGKQLRRRTGIGSGLSLSGIVHPELSRSGELAVQALDQFATVVEAKLVKHKKGIVNEQFLLQRLADGAIDLYAMVVVLSRASRSLSEGYPTAQHEKMLCDSWCIEAATRIRENMASLQSSPQHQELFRNFRSISKAMVENGGLVTGNPLGI | no binding | binds | –
hydroxymethyl-coA lyase (protein, UniProt P38060 28-325) TLPKQVKIVEVGPRDGLQNEKSIVPTPVKIRLIDMLSEAGLPVIEATSFVSPKWVPQMADHSDVLKGIQKFPGINYPVLTPNMKGFEEAVAAGAKEVSVFGAVSELFTRKNANCSIEESFQRFAGVMQAAQAASISVRGYVSCALGCPYEGKVSPAKVAEVAKKLYSMGCYEISLGDTIGVGTPGLMKDMLTAVMHEVPVTALAVHCHDTYGQALANTLVALQMGVSVVDSSVAGLGGCPYAKGASGNLATEDLVYMLNGLGIHTGVNLQKLLEAGDFICQALNRKTSSKVAQATCKL | – | binds | –
short-chain acyl-coA dehydrogenase (protein, UniProt Q07417 25-412) LHTVYQSVELPETHQMLRQTCRDFAEKELVPIAAQLDREHLFPTAQVKKMGELGLLAMDVPEELSGAGLDYLAYSIALEEISRACASTGVIMSVNNSLYLGPILKFGSAQQKQQWITPFTNGDKIGCFALSEPGNGSDAGAASTTAREEGDSWVLNGTKAWITNSWEASATVVFASTDRSRQNKGISAFLVPMPTPGLTLGKKEDKLGIRASSTANLIFEDCRIPKENLLGEPGMGFKIAMQTLDMGRIGIASQALGIAQASLDCAVKYAENRNAFGAPLTKLQNIQFKLADMALALESARLLTWRAAMLKDNKKPFTKESAMAKLAASEAATAISHQAIQILGGMGYVTEMPAERYYRDARITEIYEGTSEIQRLVIAGHLLRSYRS | – | binds | no binding (only liver of SCHAD knockout mice)

These are yes or no findings as the source states them, for the method shown. In cells and extracts the contact can be indirect. These calls come from enrichment with a bait or labelling near it, and not all partners need be listed. For some of these results: No binding means not detected with the bait. Tags and fused reporters may be left off the sequences shown.
